This passage reports binding results from paper PMC6639074.

The chains behind the UniProt entries cited, without tags or fusion partners. Where a name states a change or a piece, a line headed by the entry shows the natural chain unless it says otherwise. A line that says so, or that is headed by a name, gives the form on record, which may keep a tag or linker.
Rab5A(Q79L)-BirA*-HA-MAO (P20339, form named): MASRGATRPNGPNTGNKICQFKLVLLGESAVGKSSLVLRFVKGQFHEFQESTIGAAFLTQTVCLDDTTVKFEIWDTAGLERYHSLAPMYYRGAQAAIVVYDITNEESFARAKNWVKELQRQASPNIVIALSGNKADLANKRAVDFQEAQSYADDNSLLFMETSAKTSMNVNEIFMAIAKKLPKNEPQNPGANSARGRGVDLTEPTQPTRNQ

For assay [1], the target named is Rab11A(Q69L)-BirA*-HA-MAO (human). Description: proximity labelling; MitoID: GTPase-BirA*-HA-MAO chimera on mitochondria of transiently transfected HEK293T cells, 50 uM biotin 18 h, streptavidin beads, mass spectrometry, biological triplicates; hits by WD scores and volcano plots against the GDP-locked forms.
The target in assay [2] is Rab5A(Q79L)-BirA*-HA-MAO (human) (UniProt P20339). Described as above.

No constants are given. Whether binding was seen depends on the method and setting. In cells and extracts the contact can be indirect. A yes stands for co-enrichment or nearness to the bait. Other partners may have been found.

B1: D-AKAP2/AKAP10 (protein, UniProt O43572 29-662)
chain: KVKGKEQEKTSDVKSIKASISVHSPQKSTKNHALLEAAGPSHVAINAISANMDSFSSSRTATLKKQPSHMEAAHFGDLGRSCLDYQTQETKSSLSKTLEQVLHDTIVLPYFIQFMELRRMEHLVKFWLEAESFHSTTWSRIRAHSLNTVKQSSLAEPVSPSKKHETTASFLTDSLDKRLEDSGSAQLFMTHSEGIDLNNRTNSTQNHLLLSQECDSAHSLRLEMARAGTHQVSMETQESSSTLTVASRNSPASPLKELSGKLMKSIEQDAVNTFTKYISPDAAKPIPITEAMRNDIIARICGEDGQVDPNCFVLAQSIVFSAMEQEHFSEFLRSHHFCKYQIEVLTSGTVYLADILFCESALFYFSEYMEKEDAVNILQFWLAADNFQSQLAAKKGQYDGQEAQNDAMILYDKYFSLQATHPLGFDDVVRLEIESNICREGGPLPNCFTTPLRQAWTTMEKVFLPGFLSSNLYYKYLNDLIHSVRGDEFLGGNVSLTAPGSVGPPDESHPGSSDSSASQSSVKKASIKILKNFDEAIIVDAASLDPESLYQRTYAGKMTFGRVSDLGQFIRESEPEPDVRKSKGSMFSQAMKKWVQGNTDEAQEELAWKIAKMIVSDIMQQAQYDQPLEKSTKL
In the case of B1, the binding result in assay [1] is “binds”.

B2: Rabenosyn-5 (protein, UniProt Q9H1K0 1-784)
chain: MASLDDPGEVREGFLCPLCLKDLQSFYQLHSHYEEEHSGEDRDVKGQIKSLVQKAKKAKDRLLKREGDDRAESGTQGYESFSYGGVDPYMWEPQELGAVRSHLSDFKKHRAARIDHYVVEVNKLIIRLEKLTAFDRTNTESAKIRAIEKSVVPWVNDQDVPFCPDCGNKFSIRNRRHHCRLCGSIMCKKCMELISLPLANKLTSASKESLSTHTSPSQSPNSVHGSRRGSISSMSSVSSVLDEKDDDRIRCCTHCKDTLLKREQQIDEKEHTPDIVKLYEKLRLCMEKVDQKAPEYIRMAASLNAGETTYSLEHASDLRVEVQKVYELIDALSKKILTLGLNQDPPPHPSNLRLQRMIRYSATLFVQEKLLGLMSLPTKEQFEELKKKRKEEMERKRAVERQAALESQRRLEERQSGLASRAANGEVASLRRGPAPLRKAEGWLPLSGGQGQSEDSDPLLQQIHNITSFIRQAKAAGRMDEVRTLQENLRQLQDEYDQQQTEKAIELSRRQAEEEDLQREQLQMLRERELEREREQFRVASLHTRTRSLDFREIGPFQLEPSREPRTHLAYALDLGSSPVPSSTAPKTPSLSSTQPTRVWSGPPAVGQERLPQSSMPQQHEGPSLNPFDEEDLSSPMEEATTGPPAAGVSLDPSARILKEYNPFEEEDEEEEAVAGNPFIQPDSPAPNPFSEEDEHPQQRLSSPLVPGNPFEEPTCINPFEMDSDSGPEAEEPIEEELLLQQIDNIKAYIFDAKQCGRLDEVEVLTENLRELKHTLAKQKGGTD
As for B2, the binding result in assay [2] was “binds”.

B3: RPS6KC1 (protein, UniProt Q96S38 1-1066)
chain: MTSYRERSADLARFYTVTEPQRHPRGYTVYKVTARVVSRRNPEDVQEIIVWKRYSDFKKLHKELWQIHKNLFRHSELFPPFAKGIVFGRFDETVIEERRQCAEDLLQFSANIPALYNSKQLEDFFKGGIINDSSELIGPAEAHSDSLIDTFPECSTEGFSSDSDLVSLTVDVDSLAELDDGMASNQNSPIRTFGLNLSSDSSALGAVASDSEQSKTEEERESRSLFPGSLKPKLGKRDYLEKAGELIKLALKKEEEDDYEAASDFYRKGVDLLLEGVQGESSPTRREAVKRRTAEYLMRAESISSLYGKPQLDDVSQPPGSLSSRPLWNLRSPAEELKAFRVLGVIDKVLLVMDTRTEQTFILKGLRKSSEYSRNRKTIIPRCVPNMVCLHKYIISEESVFLVLQHAEGGKLWSYISKFLNRSPEESFDIKEVKKPTLAKVHLQQPTSSPQDSSSFESRGSDGGSMLKALPLKSSLTPSSQDDSNQEDDGQDSSPKWPDSGSSSEEECTTSYLTLCNEYGQEKIEPGSLNEEPFMKTEGNGVDTKAIKSFPAHLAADSDSPSTQLRAHELKFFPNDDPEAVSSPRTSDSLSRSKNSPMEFFRIDSKDSASELLGLDFGEKLYSLKSEPLKPFFTLPDGDSASRSFNTSESKVEFKAQDTISRGSDDSVPVISFKDAAFDDVSGTDEGRPDLLVNLPGELESTREAAAMGPTKFTQTNIGIIENKLLEAPDVLCLRLSTEQCQAHEEKGIEELSDPSGPKSYSITEKHYAQEDPRMLFVAAVDHSSSGDMSLLPSSDPKFQGLGVVESAVTANNTEESLFRICSPLSGANEYIASTDTLKTEEVLLFTDQTDDLAKEEPTSLFQRDSETKGESGLVLEGDKEIHQIFEDLDKKLALASRFYIPEGCIQRWAAEMVVALDALHREGIVCRDLNPNNILLNDRGHIQLTYFSRWSEVEDSCDSDAIERMYCAPEVGAITEETEACDWWSLGAVLFELLTGKTLVECHPAGINTHTTLNMPECVSEEARSLIQQLLQFNPLERLGAGVAGVEDIKSHPFFTPVDWAELMR
As for B3, in assay [2], the binding result is “binds”.

B4: TSC1 (protein, UniProt Q92574 1-1164)
chain: MAQQANVGELLAMLDSPMLGVRDDVTAVFKENLNSDRGPMLVNTLVDYYLETSSQPALHILTTLQEPHDKHLLDRINEYVGKAATRLSILSLLGHVIRLQPSWKHKLSQAPLLPSLLKCLKMDTDVVVLTTGVLVLITMLPMIPQSGKQHLLDFFDIFGRLSSWCLKKPGHVAEVYLVHLHASVYALFHRLYGMYPCNFVSFLRSHYSMKENLETFEEVVKPMMEHVRIHPELVTGSKDHELDPRRWKRLETHDVVIECAKISLDPTEASYEDGYSVSHQISARFPHRSADVTTSPYADTQNSYGCATSTPYSTSRLMLLNMPGQLPQTLSSPSTRLITEPPQATLWSPSMVCGMTTPPTSPGNVPPDLSHPYSKVFGTTAGGKGTPLGTPATSPPPAPLCHSDDYVHISLPQATVTPPRKEERMDSARPCLHRQHHLLNDRGSEEPPGSKGSVTLSDLPGFLGDLASEEDSIEKDKEEAAISRELSEITTAEAEPVVPRGGFDSPFYRDSLPGSQRKTHSAASSSQGASVNPEPLHSSLDKLGPDTPKQAFTPIDLPCGSADESPAGDRECQTSLETSIFTPSPCKIPPPTRVGFGSGQPPPYDHLFEVALPKTAHHFVIRKTEELLKKAKGNTEEDGVPSTSPMEVLDRLIQQGADAHSKELNKLPLPSKSVDWTHFGGSPPSDEIRTLRDQLLLLHNQLLYERFKRQQHALRNRRLLRKVIKAAALEEHNAAMKDQLKLQEKDIQMWKVSLQKEQARYNQLQEQRDTMVTKLHSQIRQLQHDREEFYNQSQELQTKLEDCRNMIAELRIELKKANNKVCHTELLLSQVSQKLSNSESVQQQMEFLNRQLLVLGEVNELYLEQLQNKHSDTTKEVEMMKAAYRKELEKNRSHVLQQTQRLDTSQKRILELESHLAKKDHLLLEQKKYLEDVKLQARGQLQAAESRYEAQKRITQVFELEILDLYGRLEKDGLLKKLEEEKAEAAEAAEERLDCCNDGCSDSMVGHNEEASGHNGETKTPRPSSARGSSGSRGGGGSSSSSSELSTPEKPPHQRAGPFSSRWETTMGEASASIPTTVGSLPSSKSFLGMKARELFRNKSESQCDEDGMTSSLSESLKTELGKDLGVEAKIPLNLDGPHPSPPTPDSVGQLHIMDYNETHHEHS
Take B4: the binding result in assay [2] is reported as “binds”.

B5: Rab3IP/Rabin8 (protein, UniProt Q96QF0 1-476)
chain: MGLKKMKGLSYDEAFAMANDPLEGFHEVNLASPTSPDLLGVYESGTQEQTTSPSVIYRPHPSALSSVPIQANALDVSELPTQPVYSSPRRLNCAEISSISFHVTDPAPCSTSGVTAGLTKLTTRKDNYNAEREFLQGATITEACDGSDDIFGLSTDSLSRLRSPSVLEVREKGYERLKEELAKAQRELKLKDEECERLSKVRDQLGQELEELTASLFEEAHKMVREANIKQATAEKQLKEAQGKIDVLQAEVAALKTLVLSSSPTSPTQEPLPGGKTPFKKGHTRNKSTSSAMSGSHQDLSVIQPIVKDCKEADLSLYNEFRLWKDEPTMDRTCPFLDKIYQEDIFPCLTFSKSELASAVLEAVENNTLSIEPVGLQPIRFVKASAVECGGPKKCALTGQSKSCKHRIKLGDSSNYYYISPFCRYRITSVCNFFTYIRYIQQGLVKQQDVDQMFWEVMQLRKEMSLAKLGYFKEEL
Regarding B5, the binding result in assay [1] is given as “binds”.

B6: TBC1D12 (protein, UniProt O60347 1-775)
chain: MVGPEDAGACSGRNPKLLPVPAPDPVGQDRKVIRATGGFGGGVGAVEPPEEADEEEEADEEEETPPRQLLQRYLAAAGEQLEPGLCYCPLPAGQAGAPPPSAAPRSDACLLGSGSKHRGAEVADGRAPRHEGMTNGDSGFLPGRDCRDLEEARGLARAGGRESRRRRPYGRLRLEGPGDEDADGAGSPSDWASPLEDPLRSCCLVAADAQEPEGAGSDSGDSPASSCSSSEDSEQRGVGAGGPEEGAPPATSAERTNGGAEPRLGFSDIHFNSRNTFQVSRGQSARDHLPPAGPPVPLPAAEQGPAGASARARRSGGFADFFTRNLFPKRTKELKSVVHSAPGWKLFGKVPPRENLQKTSKIIQQEYEARTGRTCKPPPQSSRRKNFEFEPLSTTALILEDRPSNLPAKSVEEALRHRQEYDEMVAEAKKREIKEAHKRKRIMKERFKQEENIASAMVIWINEILPNWEVMRSTRRVRELWWQGLPPSVRGKVWSLAVGNELNITPELYEIFLSRAKERWKSFSETSSENDTEGVSVADREASLELIKLDISRTFPSLYIFQKGGPYHDVLHSILGAYTCYRPDVGYVQGMSFIAAVLILNLEEADAFIAFANLLNKPCQLAFFRVDHSMMLKYFATFEVFFEENLSKLFLHFKSYSLTPDIYLIDWIFTLYSKSLPLDLACRVWDVFCRDGEEFLFRTGLGILRLYEDILLQMDFIHIAQFLTKLPEDITSEKLFSCIAAIQMQNSTKKWTQVFASVMKDIKEGDKNSSPALKS
Turning to B6, the binding entry in assay [1] is listed as “binds”.

B7: TBC1D15 (protein, UniProt Q8TC07 1-691)
chain: MAAAGVVSGKIIYEQEGVYIHSSCGKTNDQDGLISGILRVLEKDAEVIVDWRPLDDALDSSSILYARKDSSSVVEWTQAPKERGHRGSEHLNSYEAEWDMVNTVSFKRKPHTNGDAPSHRNGKSKWSFLFSLTDLKSIKQNKEGMGWSYLVFCLKDDVVLPALHFHQGDSKLLIESLEKYVVLCESPQDKRTLLVNCQNKSLSQSFENLLDEPAYGLIQAGLLDRRKLLWAIHHWKKIKKDPYTATMIGFSKVTNYIFDSLRGSDPSTHQRPPSEMADFLSDAIPGLKINQQEEPGFEVITRIDLGERPVVQRREPVSLEEWTKNIDSEGRILNVDNMKQMIFRGGLSHALRKQAWKFLLGYFPWDSTKEERTQLQKQKTDEYFRMKLQWKSISQEQEKRNSRLRDYRSLIEKDVNRTDRTNKFYEGQDNPGLILLHDILMTYCMYDFDLGYVQGMSDLLSPLLYVMENEVDAFWCFASYMDQMHQNFEEQMQGMKTQLIQLSTLLRLLDSGFCSYLESQDSGYLYFCFRWLLIRFKREFSFLDILRLWEVMWTELPCTNFHLLLCCAILESEKQQIMEKHYGFNEILKHINELSMKIDVEDILCKAEAISLQMVKCKELPQAVCEILGLQGSEVTTPDSDVGEDENVVMTPCPTSAFQSNALPTLSASGARNDSPTQIPVSSDVCRLTPA
For B7, the binding entry in assay [2] is “binds”.
